Experimental data: PubChem BioAssay AID504791 (Drosophila RNAi Screening Center, 2011)
Screen: 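Genes of the fly required for silencing by miRNA, siRNA or endo-siRNA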 (primary screen). Cells: Drosophila S2-derived reporter cells. Reagent: long dsRNA against Drosophila genes, about 150-250 ng dsRNA per well (siRNA assay); about 80-120 ng (miRNA assay). Timing: about 5 days (siRNA assay); about 4 days (miRNA assay). Challenge: copper sulfate induction of reporters: 25 µM (siRNA assay); 200 mM stated (miRNA assay), 1-2 days before reading. Measured: 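Dual luciferase assay: Renilla to firefly signal ratio in each well, scaled to the mean ratio of its plate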. Call rule: 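a well was a first-pass pick when its plate-scaled ratio rose above 1.5 (siRNA assay) or 1.6 (miRNA assay), or dropped below 0.6; a gene counted only if two separate dsRNAs agreed on retest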.
In all, the deposit lists about 23,000 reagents; below is an unselected part of those with a known target gene and a result. Of all reagents, 199 (0.86%) are marked active. 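Plate-scaled ratios behind the calls are not deposited; printed light signals are raw; many rows marked increased or decreased are still called inactive.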 A plus sign joins genes that one reagent is predicted to hit. No sequences are given here. Not given: the direction of the score.

The first 10 entries, ahead of the listing:
no.	gene	amplicon	stable siRNA reporter change	miRNA reporter change	stable assay Renilla, run 1 (luminescence)	stable assay firefly, run 1 (luminescence)	Call
1	CG11786 (GeneID 42998)	DRSC14389			7491	3.23e5	inactive
2	Gr77a (GeneID 117476)	DRSC11446			7244	4.83e5	inactive
3	CG4872 (GeneID 32676)	DRSC19921			7439	4.35e5	inactive
4	GstE14 (GeneID 36467)	DRSC06881			5542	3.13e5	inactive
5	CG33223 (GeneID 2768867)	DRSC17572			5072	3.62e5	inactive
6	CG6149 (GeneID 39277)	DRSC10593			7027	3.86e5	inactive
7	CG43325 (GeneID 246515)	DRSC04157			6123	3.89e5	inactive
8	CNMa (GeneID 38242)	DRSC08405			5731	3.78e5	inactive
9	CG1598 (GeneID 35690)	DRSC06598			5502	3.11e5	inactive
10	MSBP (GeneID 32548)	DRSC20146			7947	4.62e5	inactive

The listing, repeating the preview:
no.	gene	amplicon	stable siRNA reporter change	miRNA reporter change	stable assay Renilla, run 1 (luminescence)	stable assay firefly, run 1 (luminescence)	Call
1	CG11786 (GeneID 42998)	DRSC14389			7491	3.23e5	inactive
2	Gr77a (GeneID 117476)	DRSC11446			7244	4.83e5	inactive
3	CG4872 (GeneID 32676)	DRSC19921			7439	4.35e5	inactive
4	GstE14 (GeneID 36467)	DRSC06881			5542	3.13e5	inactive
5	CG33223 (GeneID 2768867)	DRSC17572			5072	3.62e5	inactive
6	CG6149 (GeneID 39277)	DRSC10593			7027	3.86e5	inactive
7	CG43325 (GeneID 246515)	DRSC04157			6123	3.89e5	inactive
8	CNMa (GeneID 38242)	DRSC08405			5731	3.78e5	inactive
9	CG1598 (GeneID 35690)	DRSC06598			5502	3.11e5	inactive
10	MSBP (GeneID 32548)	DRSC20146			7947	4.62e5	inactive
11	mRpS31 (GeneID 39749)	DRSC10556	reporter ratio lowered past the hit cutoff		5140	4.22e5	inactive
12	CG1136 (GeneID 38479)	DRSC08184			8139	4.95e5	inactive
13	CG13385 (GeneID 34164)	DRSC02259			6662	3.29e5	inactive
14	CG4789 (GeneID 32668)	DRSC19918			3939	2.98e5	inactive
15	Cyp6a20 (GeneID 36664)	DRSC07380			8135	4.45e5	inactive
16	arm (GeneID 31151)	DRSC18738			8895	4.84e5	inactive
17	RhoGAP102A (GeneID 43781)	DRSC17110			7762	3.35e5	inactive
18	RhoGAP102A (GeneID 43781)	DRSC17145			7741	5.20e5	inactive
19	lbl (GeneID 42541)	DRSC16986			7035	3.24e5	inactive
20	Pfdn5 (GeneID 42647)	DRSC16183			8575	4.32e5	inactive
21	CG15034 (GeneID 31670)	DRSC17966			5698	3.10e5	inactive
22	CG17490 (GeneID 3355125)	DRSC03794			5978	3.71e5	inactive
23	CG17490 (GeneID 3355125)	DRSC03797			6843	4.13e5	inactive
24	CG8141 (GeneID 41622)	DRSC16387			6143	4.36e5	inactive
25	CG8586 (GeneID 35854)	DRSC07218			8395	4.25e5	inactive
26	CG7402 (GeneID 39994)	DRSC10839			6854	3.32e5	inactive
27	CG3777 (GeneID 30979)	DRSC18489			4427	3.66e5	inactive
28	CG13791 (retired record) (GeneID 34034)	DRSC02295			7560	5.30e5	inactive
29	CG7408 (GeneID 39991)	DRSC10841			8182	3.89e5	inactive
30	CG14764 (GeneID 35749)	DRSC05072			4604	3.37e5	inactive
31	CG14764 (GeneID 35749)	DRSC06498			8620	3.93e5	inactive
32	CG14764 (GeneID 35749)	DRSC06844			7190	3.13e5	inactive
33	CG2533 (GeneID 32110)	DRSC19855			5211	4.72e5	inactive
34	cnir (GeneID 33520)	DRSC00499			8521	5.73e5	inactive
35	Cyp312a1 (GeneID 40005)	DRSC11128			7154	2.73e5	inactive
36	CG14990 (GeneID 38486)	DRSC08449			6658	3.50e5	inactive
37	unc-13 (GeneID 43841)	DRSC17192			7822	4.28e5	inactive
38	unc-13 (GeneID 43841)	DRSC17193			7783	4.09e5	inactive
39	unc-13 (GeneID 43841)	DRSC17223			6859	4.47e5	inactive
40	DptB (GeneID 37184)	DRSC06001			6859	4.31e5	inactive
41	hydra (GeneID 33058)	DRSC20497			6080	4.81e5	inactive
42	sordd2 + sordd1	DRSC20136			9779	6.35e5	inactive
43	sordd2 + sordd1	DRSC28444		reporter ratio raised past the hit cutoff			inactive
44	side-III (GeneID 4379844)	DRSC12155			8094	3.69e5	inactive
45	side-III (GeneID 4379844)	DRSC12263	reporter ratio raised past the hit cutoff		6218	2.38e5	inactive
46	side-III (GeneID 4379844)	DRSC12264			7278	4.16e5	inactive
47	Vps33B (GeneID 43077)	DRSC15722			10032	6.45e5	inactive
48	Tango14 (GeneID 33298)	DRSC00667			8192	4.01e5	inactive
49	CG4666 (GeneID 31541)	DRSC18379			5700	3.13e5	inactive
50	eEF1beta (GeneID 45249)	DRSC07419			8050	2.51e5	inactive
51	CG2921 (GeneID 37515)	DRSC04324		reporter ratio lowered past the hit cutoff	9530	6.44e5	inactive
52	Hrb87F (GeneID 48535)	DRSC16708		reporter ratio raised past the hit cutoff	14736	5.71e5	inactive
53	Hrb87F (GeneID 48535)	DRSC29600		reporter ratio raised past the hit cutoff			inactive
54	CG34267 (GeneID 5740365)	DRSC07881			4767	3.33e5	inactive
55	Spn28B (GeneID 34035)	DRSC02982			4643	3.56e5	inactive
56	CG13933 (GeneID 38227)	DRSC08402			8394	2.87e5	inactive
57	CG10730 (GeneID 35291)	DRSC02102			6918	4.71e5	inactive
58	CG17108 (GeneID 34471)	DRSC02576			7122	4.16e5	inactive
59	CG17108 (GeneID 34471)	DRSC22214		reporter ratio raised past the hit cutoff	9335	6.35e5	inactive
60	enc (GeneID 44543)	DRSC08716			6698	4.23e5	inactive
61	Orc1 (GeneID 35686)	DRSC07496			4243	4.70e5	inactive
62	CG31174 (GeneID 318616)	DRSC13518			5223	4.51e5	inactive
63	CG5674 (GeneID 35072)	DRSC02874	reporter ratio raised past the hit cutoff		5111	1.68e5	inactive
64	CG5674 (GeneID 35072)	DRSC23176			3420	2.63e5	inactive
65	Etfb (GeneID 43515)	DRSC16324			7921	3.58e5	inactive
66	CG3199 (GeneID 41725)	DRSC15467			6835	5.68e5	inactive
67	CG12493 (GeneID 38575)	DRSC08279			11585	5.01e5	inactive
68	CG42715 (retired record) (GeneID 10178969)	DRSC05499	reporter ratio lowered past the hit cutoff		5614	6.52e5	inactive
69	lark (GeneID 38811)	DRSC11362			6008	2.86e5	inactive
70	dila (GeneID 36010)	DRSC06607			6040	4.93e5	inactive
71	Nadk2 (GeneID 35918)	DRSC07072			7444	3.42e5	inactive
72	CG32237 (GeneID 38584)	DRSC08312			7239	5.74e5	inactive
73	CG32237 (GeneID 38584)	DRSC08315			6339	4.47e5	inactive
74	PK2-R1 (GeneID 41639)	DRSC16447			7366	3.62e5	inactive
75	Pi3K68D (GeneID 39329)	DRSC11253			6119	4.68e5	inactive
76	CG17202 (GeneID 41526)	DRSC15194			4335	2.20e5	inactive
77	CG17202 (GeneID 41526)	DRSC23073			4468	3.99e5	inactive
78	CG10163 (GeneID 38728)	DRSC09710			7018	4.00e5	inactive
79	CG15040 (GeneID 32848)	DRSC19616			4088	5.19e5	inactive
80	CG15040 (GeneID 32848)	DRSC21482			8255	5.16e5	inactive
81	Cyp6g1 (GeneID 36316)	DRSC07386			9875	4.06e5	inactive
82	CG6055 (GeneID 34027)	DRSC02923			7570	4.04e5	inactive
83	Syn1 (GeneID 40424)	DRSC11803			7591	3.74e5	inactive
84	Syn1 (GeneID 40424)	DRSC11804			7483	3.83e5	inactive
